Drawing on PMC7188863, this text covers binding for 5 molecules.

Sequences of proteins named here, by UniProt entry; tags and fusion partners are left off. Residues count along the entry.
UniProt O75197, residues 32-1615: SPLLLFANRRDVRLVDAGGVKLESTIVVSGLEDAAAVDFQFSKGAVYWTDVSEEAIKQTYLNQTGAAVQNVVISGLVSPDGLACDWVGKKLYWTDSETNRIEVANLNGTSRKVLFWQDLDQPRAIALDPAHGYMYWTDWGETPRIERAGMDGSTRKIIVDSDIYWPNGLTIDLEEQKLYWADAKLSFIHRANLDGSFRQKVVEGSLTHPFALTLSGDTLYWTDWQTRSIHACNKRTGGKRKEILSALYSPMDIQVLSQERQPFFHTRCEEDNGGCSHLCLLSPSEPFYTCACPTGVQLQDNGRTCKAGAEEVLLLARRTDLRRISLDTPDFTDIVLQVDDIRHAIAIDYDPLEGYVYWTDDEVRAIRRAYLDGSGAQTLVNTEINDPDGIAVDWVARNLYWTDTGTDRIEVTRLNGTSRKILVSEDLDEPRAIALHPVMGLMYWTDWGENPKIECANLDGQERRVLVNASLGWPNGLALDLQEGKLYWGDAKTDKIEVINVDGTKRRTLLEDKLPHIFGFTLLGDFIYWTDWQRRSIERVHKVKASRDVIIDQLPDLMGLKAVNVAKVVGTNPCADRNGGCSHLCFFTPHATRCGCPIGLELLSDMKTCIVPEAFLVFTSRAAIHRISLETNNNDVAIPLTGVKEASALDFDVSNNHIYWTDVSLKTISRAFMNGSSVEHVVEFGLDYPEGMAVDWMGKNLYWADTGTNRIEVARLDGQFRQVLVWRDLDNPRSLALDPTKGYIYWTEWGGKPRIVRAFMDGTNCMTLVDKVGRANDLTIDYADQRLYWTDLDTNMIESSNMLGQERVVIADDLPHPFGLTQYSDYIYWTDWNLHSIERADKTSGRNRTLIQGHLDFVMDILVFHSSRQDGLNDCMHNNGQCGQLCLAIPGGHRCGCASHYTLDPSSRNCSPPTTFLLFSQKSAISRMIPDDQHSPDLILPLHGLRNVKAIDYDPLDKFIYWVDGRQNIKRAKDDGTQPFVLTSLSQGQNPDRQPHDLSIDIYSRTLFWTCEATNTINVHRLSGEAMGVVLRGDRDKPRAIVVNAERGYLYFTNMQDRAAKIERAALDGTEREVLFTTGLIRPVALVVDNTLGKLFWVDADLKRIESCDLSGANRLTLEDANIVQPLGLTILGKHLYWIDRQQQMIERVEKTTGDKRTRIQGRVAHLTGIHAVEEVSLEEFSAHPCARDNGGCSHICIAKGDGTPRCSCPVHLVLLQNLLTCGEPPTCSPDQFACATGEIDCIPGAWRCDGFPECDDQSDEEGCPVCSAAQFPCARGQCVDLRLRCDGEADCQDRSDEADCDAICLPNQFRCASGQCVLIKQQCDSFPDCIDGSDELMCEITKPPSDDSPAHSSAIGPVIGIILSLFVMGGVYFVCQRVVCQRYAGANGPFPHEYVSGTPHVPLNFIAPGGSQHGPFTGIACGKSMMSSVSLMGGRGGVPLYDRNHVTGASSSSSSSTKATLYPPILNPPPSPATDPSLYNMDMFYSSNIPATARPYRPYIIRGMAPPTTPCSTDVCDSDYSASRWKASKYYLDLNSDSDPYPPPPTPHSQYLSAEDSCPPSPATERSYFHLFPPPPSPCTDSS
UniProt P37173, residues 23-567: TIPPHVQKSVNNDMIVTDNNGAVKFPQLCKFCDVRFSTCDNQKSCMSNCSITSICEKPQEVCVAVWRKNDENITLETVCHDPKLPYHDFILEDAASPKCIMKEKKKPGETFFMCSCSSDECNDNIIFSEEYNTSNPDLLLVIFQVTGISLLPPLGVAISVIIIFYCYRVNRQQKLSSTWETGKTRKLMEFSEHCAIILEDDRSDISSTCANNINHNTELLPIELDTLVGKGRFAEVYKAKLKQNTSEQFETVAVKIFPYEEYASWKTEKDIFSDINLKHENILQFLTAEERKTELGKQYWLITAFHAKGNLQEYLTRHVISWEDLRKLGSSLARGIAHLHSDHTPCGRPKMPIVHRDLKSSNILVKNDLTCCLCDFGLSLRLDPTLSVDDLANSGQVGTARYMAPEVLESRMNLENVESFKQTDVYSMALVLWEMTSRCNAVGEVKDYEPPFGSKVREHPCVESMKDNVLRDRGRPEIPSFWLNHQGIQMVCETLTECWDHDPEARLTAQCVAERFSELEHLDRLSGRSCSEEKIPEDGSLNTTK

In assay [1] the target is T1, TβRI with His tag, expressed in HKC-8 cells (UniProt P36897).
T1 sequence: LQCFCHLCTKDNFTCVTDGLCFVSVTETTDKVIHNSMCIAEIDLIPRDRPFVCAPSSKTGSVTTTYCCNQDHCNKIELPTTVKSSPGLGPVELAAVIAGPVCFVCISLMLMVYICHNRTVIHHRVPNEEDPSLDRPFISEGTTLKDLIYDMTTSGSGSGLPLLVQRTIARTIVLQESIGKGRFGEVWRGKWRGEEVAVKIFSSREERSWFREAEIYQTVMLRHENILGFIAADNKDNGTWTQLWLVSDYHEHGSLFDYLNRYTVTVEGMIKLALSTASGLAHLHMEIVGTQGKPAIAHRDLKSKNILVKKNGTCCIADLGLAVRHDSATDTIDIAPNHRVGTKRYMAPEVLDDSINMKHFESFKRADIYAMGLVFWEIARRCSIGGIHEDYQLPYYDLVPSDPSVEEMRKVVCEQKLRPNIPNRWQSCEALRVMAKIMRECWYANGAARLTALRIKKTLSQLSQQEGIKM
The assay is described as follows: co-IP; HKC-8 cells co-transfected with TβRI-His and LRP5-Flag or LDLR-Flag for 48 h, with or without 2 ng/ml TGF-β for 15 min; TβRI-His precipitated by Ni-NTA resin; blotted for His, Flag and TβRII.

The target in assay [2] is LRP5 overexpressed in HKC-8 cells (no tag named) (UniProt O75197). The experiment in a line: co-IP; HKC-8 cells co-transfected with TβRII and LRP5 for 48 h, with or without 2 ng/ml TGF-β for 15 min; TβRII and LRP5 each precipitated with their specific antibodies; blotted for TβRII and LRP5.
Assay [3] concerns the target T2, TβRI with His tag, expressed in HEK293A cells (UniProt P36897).
T2 sequence: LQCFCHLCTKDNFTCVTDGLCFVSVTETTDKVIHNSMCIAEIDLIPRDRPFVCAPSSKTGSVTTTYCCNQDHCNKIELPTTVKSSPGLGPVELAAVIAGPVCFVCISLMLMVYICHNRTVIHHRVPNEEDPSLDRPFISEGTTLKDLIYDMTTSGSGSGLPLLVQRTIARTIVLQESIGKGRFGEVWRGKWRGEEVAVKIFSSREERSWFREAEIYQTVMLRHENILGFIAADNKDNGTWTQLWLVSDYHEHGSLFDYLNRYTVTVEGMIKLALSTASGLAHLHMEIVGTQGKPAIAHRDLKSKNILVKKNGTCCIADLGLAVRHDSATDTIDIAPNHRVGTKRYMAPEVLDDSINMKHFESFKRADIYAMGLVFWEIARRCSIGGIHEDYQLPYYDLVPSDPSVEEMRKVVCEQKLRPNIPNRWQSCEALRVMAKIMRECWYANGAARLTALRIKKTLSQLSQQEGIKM
The experiment in a line: co-IP; HEK293A cells co-transfected with TβRI-His and LRP5FL-Flag, LRP5∆N-Flag or LRP5∆C-Flag for 48 h; TβRI-His precipitated by Ni-NTA resin; blotted for His and Flag.

Assay [4] deals with T2, TβRI with His tag, expressed in HEK293A cells. The experiment in a line: co-IP; HEK293A cells co-transfected with TβRI-His and LRP5-Flag for 48 h, with or without 2 ng/ml TGF-β1 for 15 min; TβRI-His precipitated by Ni-NTA resin and LRP5-Flag by anti-Flag resin; blotted for His and Flag.
In assay [5] the target is low-density lipoprotein receptor-related protein 5 (LRP5), endogenous in HKC-8 cells (human (endogenous in HKC-8)) (UniProt O75197). The assay is described as follows: co-IP; endogenous LRP5 precipitated with its specific antibody from HKC-8 cells in normal condition; blotted for TβRI, TβRII and LRP5.

Results are given in words; binding and its absence hold for the method and conditions named. In cells and extracts the contact can be indirect. Some binding calls cover weakened binding; strength is not graded here. For part of these data: Sequences can lack the tags named with a protein.

As for “LRP5 with Flag tag, expressed in HKC-8 cells (from UniProt O75197 32-1615) (receptor)”, the binding result in assay [1] is “binds”. With “TβRII overexpressed in HKC-8 cells (from UniProt P37173 23-567) (receptor)”, in assay [2], the binding entry was “binds”. Turning to “full-length LRP5 with Flag tag, expressed in HEK293A cells (from UniProt O75197 32-1615) (receptor)”, the binding entry in assay [3] and in assay [4] was “binds” in each case. Consider “TGF-β receptor II (TβRII), endogenous in HKC-8 cells (from UniProt P37173 23-567)”, for which the binding entry in assay [5] was “binds”.

B1: TGF-β receptor I (TβRI), endogenous in HKC-8 cells (receptor, UniProt P36897 34-503)
chain: LQCFCHLCTKDNFTCVTDGLCFVSVTETTDKVIHNSMCIAEIDLIPRDRPFVCAPSSKTGSVTTTYCCNQDHCNKIELPTTVKSSPGLGPVELAAVIAGPVCFVCISLMLMVYICHNRTVIHHRVPNEEDPSLDRPFISEGTTLKDLIYDMTTSGSGSGLPLLVQRTIARTIVLQESIGKGRFGEVWRGKWRGEEVAVKIFSSREERSWFREAEIYQTVMLRHENILGFIAADNKDNGTWTQLWLVSDYHEHGSLFDYLNRYTVTVEGMIKLALSTASGLAHLHMEIVGTQGKPAIAHRDLKSKNILVKKNGTCCIADLGLAVRHDSATDTIDIAPNHRVGTKRYMAPEVLDDSINMKHFESFKRADIYAMGLVFWEIARRCSIGGIHEDYQLPYYDLVPSDPSVEEMRKVVCEQKLRPNIPNRWQSCEALRVMAKIMRECWYANGAARLTALRIKKTLSQLSQQEGIKM
As for B1, the binding result in assay [5] is recorded as “binds”.
